Measurements reported in PMC6898186.
Results are given in words; binding and its absence hold for the method and conditions named. In cells and extracts the contact can be indirect. Some entries that bind do so weakly or less than the wild type.

The chains behind the UniProt entries cited, without tags or fusion partners.
UniProt P08047: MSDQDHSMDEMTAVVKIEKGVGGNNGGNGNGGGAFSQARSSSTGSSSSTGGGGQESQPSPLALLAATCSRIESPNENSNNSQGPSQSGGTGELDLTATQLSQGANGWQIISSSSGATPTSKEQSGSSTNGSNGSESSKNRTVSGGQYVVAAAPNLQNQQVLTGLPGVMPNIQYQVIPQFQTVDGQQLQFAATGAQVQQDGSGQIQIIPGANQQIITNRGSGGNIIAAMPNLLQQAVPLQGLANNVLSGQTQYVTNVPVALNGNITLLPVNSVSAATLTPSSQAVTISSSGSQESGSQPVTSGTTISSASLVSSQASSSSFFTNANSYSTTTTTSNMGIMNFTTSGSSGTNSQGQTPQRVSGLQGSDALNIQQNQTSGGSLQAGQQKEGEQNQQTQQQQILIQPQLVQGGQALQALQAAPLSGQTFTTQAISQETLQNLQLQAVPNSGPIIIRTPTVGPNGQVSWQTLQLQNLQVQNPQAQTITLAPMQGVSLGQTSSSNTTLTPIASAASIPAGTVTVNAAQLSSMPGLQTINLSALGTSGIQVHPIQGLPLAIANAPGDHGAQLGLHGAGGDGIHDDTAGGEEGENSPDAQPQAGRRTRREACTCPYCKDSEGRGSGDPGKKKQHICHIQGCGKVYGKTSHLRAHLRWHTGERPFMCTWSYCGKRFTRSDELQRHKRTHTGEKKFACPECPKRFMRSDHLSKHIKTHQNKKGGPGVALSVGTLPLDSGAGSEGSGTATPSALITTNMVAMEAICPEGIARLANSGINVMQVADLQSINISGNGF
UniProt P98170: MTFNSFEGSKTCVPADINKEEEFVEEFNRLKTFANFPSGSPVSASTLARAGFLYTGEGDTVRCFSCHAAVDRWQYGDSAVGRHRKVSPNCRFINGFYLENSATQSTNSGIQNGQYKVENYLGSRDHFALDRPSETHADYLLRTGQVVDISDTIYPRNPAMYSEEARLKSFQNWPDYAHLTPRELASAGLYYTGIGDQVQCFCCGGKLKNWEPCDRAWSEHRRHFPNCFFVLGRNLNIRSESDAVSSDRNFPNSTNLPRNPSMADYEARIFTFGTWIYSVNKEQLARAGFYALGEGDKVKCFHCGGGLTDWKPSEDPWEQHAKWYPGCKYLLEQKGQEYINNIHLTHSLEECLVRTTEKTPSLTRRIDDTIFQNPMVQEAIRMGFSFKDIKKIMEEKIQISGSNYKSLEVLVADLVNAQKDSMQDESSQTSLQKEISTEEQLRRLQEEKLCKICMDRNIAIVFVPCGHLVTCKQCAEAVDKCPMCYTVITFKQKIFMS

How the values were obtained:
[1] = target: GFP-tagged Sp1 (UniProt P08047); experiment: co-IP; anti-GFP antibody-conjugated beads precipitate GFP-Sp1 from lysates of transfected T24T cells; immunoblot
[2] = target: HA-tagged XIAP (X-linked inhibitor of apoptosis) (UniProt P98170); experiment: co-IP; anti-HA antibody-conjugated beads precipitate HA-XIAP or its HA-tagged fragments from lysates of T24T cells; immunoblot

Substance	binding [1]	binding [2]
HA-tagged XIAP (X-linked inhibitor of apoptosis) (from UniProt P98170 1-497)	binds	
GFP-tagged Sp1 (from UniProt P08047 1-785)		binds
Sp1 (from UniProt P08047 1-785)		binds
